# Results of single-concentration screens

The values are deposited in ChEMBL (CHEMBL3988442, “University of Dundee, Small-Polar-MMV Screening Library” (2021)).

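Growth of Mycobacterium tuberculosis over 3 days (7H9 medium with glucose and tyloxapol); the read-out is not stated. Compounds at 500 µM. The record gives no direction; compounds that gave an IC50 in retests scored well above the rest, so higher reads as more growth inhibition. Size under these conditions: about 18,000 compounds, about 1,400 of them at 50% or above in at least one test.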

Each number is a percent effect as filed.
The controls that fix the scale are not given in the record; negative values are as filed.
Compounds were drawn at random from those tested, without regard to their results.

compound: Cn1cc(I)c(=O)n(Cc2ccccn2)c1=O
effect: -13.55%

compound: C[C@H](N)c1cccs1
effect: 11.15%

compound: O=C(NCCO)Nc1nc2ccccc2s1
effect: 11.87%

compound: CCOC(=O)CN(C(C)=O)c1ccc(C)cc1
effect: 20.06%

compound: Cn1ccnc1C(NC(=O)c1cnc(O)cn1)C1CC1 (centres unmarked)
effect: 4.36%

compound: NC1COC2(CCCCC2)C1 (centres unmarked)
effect: 19.79%

compound: CN1CCN(c2ccc(NC(=O)C3CC3)cc2)CC1
effect: -21.48%

compound: CCn1ccc(CN2CCC(NS(C)(=O)=O)CC2)n1
effect: 12.68%

compound: CCO[C@H]1CN(Cc2cc(C(C)=O)cn2C)C[C@@H]1O
effect: 3.365%

compound: CCC1(CNC(=O)NCC(C)(C)S(C)(=O)=O)CCC1
effect: 22.85%

compound: CSCCC(C)(N)C#N (centres unmarked)
effect: 8.524%

compound: N#Cc1cc(Br)ccc1NCCC(=O)N1CCOCC1
effect: 53.28%

compound: Cc1ncc(C(=O)N2CCOC(C#N)C2)c(Cl)c1Br (centres unmarked)
effect: 3.456%

compound: COC(=O)c1cccc2c1CCCN2C(=O)CSC
effect: 43.33%

compound: NC1CCN(C(=O)c2ccccc2Cl)C1 (centres unmarked)
effect: 2.775%

compound: CC(C)(CO)CCCNC(=O)N1CCSCC1
effect: 10.13%

compound: Cn1ccc(NC(=O)CN2CCC[C@@H]2C(N)=O)n1
effect: -0.9925%

compound: CCOC(=O)N1CCC(NC(=O)c2ccsc2)CC1
effect: 67.05%

compound: NCCOCc1ccc(Cl)cc1
effect: 40.34%

compound: Nc1nnc(CS(=O)(=O)Cc2ccccc2)s1
effect: -6.357%

compound: COC(=O)c1csc(NC(=O)c2cnn(C)c2)c1
effect: 1.171%

compound: CCC(CO)NS(=O)(=O)c1ccc(C)cc1 (centres unmarked)
effect: 21.8%

compound: CN1CCCC2(CCNC2)C1=O (centres unmarked)
effect: 1.838%

compound: CCC(C)(O)CCN (centres unmarked)
effect: -14.66%

compound: NCc1noc(-c2ccc3c(c2)OCO3)n1
effect: 15.78%

compound: Cc1ccc(CC(=O)NC2(C)CCS(=O)(=O)C2)cc1 (centres unmarked)
effect: 23.09%

compound: NCc1ccc(-n2cc(Cl)cn2)cc1
effect: 0.591%

compound: O=C1Nc2ccccc2C1O (centres unmarked)
effect: 0.1265%

compound: Cc1cc(CO)no1
effect: -0.9837%

compound: NC(=O)C1CSCCN1CCCF (centres unmarked)
effect: 0.5125%

compound: CC(Cn1ccnc1)NC(=O)Cn1cc(Br)ccc1=O (centres unmarked)
effect: -7.602%

compound: O=C(CN1CCSCC1)NCC1CCCO1 (centres unmarked)
effect: 29.8%

compound: O=C(c1cnn(-c2ccccc2)c1)N1CCCCC1
effect: -15.41%

compound: Cc1ccc(NC(=O)N2CCSCC2)cc1C(N)=O
effect: -5.076%

compound: CC1CCN(S(=O)(=O)NC(C)C(C)C)CC1 (centres unmarked)
effect: 33.23%

compound: NC1(CF)CCOCC1
effect: 4.309%

compound: COc1ccc(F)cc1C(=O)N1CCC(C(C)(C)O)C1 (centres unmarked)
effect: 0.6522%

compound: CN(Cc1ccccc1N1CCOCC1)S(N)(=O)=O
effect: 19.84%

compound: O=c1oc(-c2ccccc2)nn1CN1CCCCC1
effect: 1.446%

compound: Nc1cncc(-c2nccs2)c1
effect: -9.939%

The first 2 entries again:

For Cn1cc(I)c(=O)n(Cc2ccccn2)c1=O the result was -13.55%.
For C[C@H](N)c1cccs1 the result was 11.15%.